# Assay results: paper PMC3584136
# Chains of the proteins cited; added tags and fusions are not shown.
# UniProt O35433: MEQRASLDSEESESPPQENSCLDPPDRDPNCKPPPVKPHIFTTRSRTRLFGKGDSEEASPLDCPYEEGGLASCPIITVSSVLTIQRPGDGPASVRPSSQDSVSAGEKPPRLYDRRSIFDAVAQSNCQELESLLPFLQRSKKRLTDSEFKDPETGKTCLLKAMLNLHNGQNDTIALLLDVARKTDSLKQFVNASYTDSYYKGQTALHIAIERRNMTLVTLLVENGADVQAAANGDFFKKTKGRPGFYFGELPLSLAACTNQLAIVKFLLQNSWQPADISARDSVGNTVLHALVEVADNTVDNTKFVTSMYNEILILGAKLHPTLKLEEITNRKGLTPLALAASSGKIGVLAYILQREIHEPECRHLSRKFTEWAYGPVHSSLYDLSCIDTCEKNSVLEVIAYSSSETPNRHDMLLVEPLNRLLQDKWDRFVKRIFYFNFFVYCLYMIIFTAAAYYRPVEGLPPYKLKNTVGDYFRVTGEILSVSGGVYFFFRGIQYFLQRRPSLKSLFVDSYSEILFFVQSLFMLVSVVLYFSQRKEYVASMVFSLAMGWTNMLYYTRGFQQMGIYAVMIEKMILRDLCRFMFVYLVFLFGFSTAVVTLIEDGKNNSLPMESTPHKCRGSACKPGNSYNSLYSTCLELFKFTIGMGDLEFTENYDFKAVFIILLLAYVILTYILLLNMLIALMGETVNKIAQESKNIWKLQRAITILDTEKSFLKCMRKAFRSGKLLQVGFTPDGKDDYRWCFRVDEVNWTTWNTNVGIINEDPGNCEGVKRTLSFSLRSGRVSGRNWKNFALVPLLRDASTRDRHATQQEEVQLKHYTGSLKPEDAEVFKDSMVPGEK
# UniProt P0DMW0: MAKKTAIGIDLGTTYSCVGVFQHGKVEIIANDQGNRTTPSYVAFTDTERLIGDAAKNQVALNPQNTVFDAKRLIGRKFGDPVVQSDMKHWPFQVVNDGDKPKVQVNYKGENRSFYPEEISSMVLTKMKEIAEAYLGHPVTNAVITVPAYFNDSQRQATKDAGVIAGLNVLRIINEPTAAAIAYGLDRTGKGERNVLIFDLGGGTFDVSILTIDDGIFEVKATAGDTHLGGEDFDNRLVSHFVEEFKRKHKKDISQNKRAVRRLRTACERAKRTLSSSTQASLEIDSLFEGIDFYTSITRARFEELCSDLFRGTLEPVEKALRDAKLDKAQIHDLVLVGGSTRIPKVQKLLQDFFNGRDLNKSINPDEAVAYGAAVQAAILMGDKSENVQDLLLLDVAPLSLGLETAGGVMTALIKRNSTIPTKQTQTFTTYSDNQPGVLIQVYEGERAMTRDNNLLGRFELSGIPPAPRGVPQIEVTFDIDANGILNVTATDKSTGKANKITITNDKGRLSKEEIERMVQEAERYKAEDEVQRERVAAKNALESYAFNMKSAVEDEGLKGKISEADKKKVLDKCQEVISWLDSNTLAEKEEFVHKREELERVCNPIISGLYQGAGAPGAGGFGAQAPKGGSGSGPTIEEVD
# No constants are given. Whether binding was seen depends on the method and setting. In cells and extracts the contact can be indirect. Some entries that bind do so weakly or less than the wild type.
# Molecular target: transient receptor potential vanilloid type-1 (TRPV1) (rat (endogenous in lung)) (UniProt O35433)
# Experiment: co-IP; 100 ug of lung homogenate of rats treated in vivo with the adenoviral vector over-expressing Hsp70; precipitated with rabbit polyclonal anti-TRPV1 (1:100) overnight at 4°C, protein A/G beads; immunoblot for TRPV1 and Hsp70
substance,measurement,value
Hsp70 (from UniProt P0DMW0 1-641),binding,binds
